Test results published in the supplement of paper PMC3334620.
In all, about 33,000 sequences were measured (“E-score (-0.5 to 0.5)”: median about -0.0059, highest 2% from about 0.26 on). The list shows a part of the results.

Molecular target: T1, Cin5 (UniProt P40917)
T1 sequence: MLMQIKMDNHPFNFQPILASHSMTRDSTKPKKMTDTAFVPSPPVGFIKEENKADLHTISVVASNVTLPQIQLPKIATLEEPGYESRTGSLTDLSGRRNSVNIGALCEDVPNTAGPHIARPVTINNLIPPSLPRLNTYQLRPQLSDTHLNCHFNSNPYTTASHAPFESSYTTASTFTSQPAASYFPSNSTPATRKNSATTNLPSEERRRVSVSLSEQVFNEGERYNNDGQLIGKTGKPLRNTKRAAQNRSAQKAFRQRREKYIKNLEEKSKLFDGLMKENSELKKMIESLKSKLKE
Assay: PBM E-score (8-mer binding enrichment) (E-score (-0.5 to 0.5)); higher = stronger / more preferred TF binding
Details: protein concentration: 100 nM; construct: GST-full length
Procedure, shortened: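 GST-tagged yeast TFs (full-length or DNA-binding domain) were made by PURExpress in vitro transcription/translation and applied at about 100-200 nM to universal all-10-mer Agilent arrays. The arrays were made double-stranded by primer extension, on fresh or once-stripped slides. Bound protein was detected with fluorescent anti-GST, and scans were normalised with masliner. Each ungapped eight-base word, pooled with its reverse complement, received an E-score (modified Wilcoxon-Mann-Whitney statistic) from the Universal PBM Analysis Suite.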

Row | Sequence | PBM E-score
1 | ATCTTCTC | 0.118
2 | CTGCGCAG | -0.126
3 | CCATGCCC | -0.229
4 | ACTTGTTA | 0.0796
5 | ACCCGCAA | -0.252
6 | CGAACCTA | -0.0686
7 | CACGCGCC | -0.0398
8 | AAAGTATT | 0.203
9 | CGGTGTAA | -0.0608
10 | GGTATAGA | -0.00764
11 | GTGGGTAA | -0.125
12 | GACAGGCA | -0.144
13 | ACTGAAGT | 0.109
14 | ATTCGATC | 0.143
15 | AGCCCCGA | -0.0651
16 | TAGGCCAA | -0.0899
17 | ATCATAAG | 0.204
18 | GAGCAGGC | -0.227
19 | GAACAGAC | 0.0587
20 | GTTGGGAA | -0.00813
21 | AGCCGGGC | -0.216
22 | GGGATATA | 0.0575
23 | CGCTCAAC | 0.0617
24 | ACATTCGA | 0.0628
25 | ATAATAAT | 0.22

Row | Sequence | PBM E-score
26 | AGCAGGAT | 0.0397
27 | ACCCCCGC | -0.27
28 | GATGCTTA | 0.0868
29 | AGTCAACC | -0.0575
30 | GGCATTAA | 0.0403
31 | GGCTGCAC | -0.148
32 | AAGTATCT | -0.0261
33 | GCGCAGAA | 0.148
34 | ACTGGTCC | -0.242
35 | CGTAGGAG | -0.233
36 | CACGTCAG | 0.184
37 | ATAACTAA | 0.141
38 | ATGTTTAC | 0.138
39 | AAACCTTG | 0.072
40 | TCCATCAA | 0.209
41 | GGAGGTGA | -0.101
42 | GTGGGCTA | -0.041
43 | CATGTCTA | -0.151
44 | AGAAGTCG | -0.0866
45 | ACATGCAT | 0.148
46 | CCCACCGG | -0.277
47 | GTGGATGA | 0.157
48 | AATAAATG | 0.269
49 | AAACAATG | 0.196
50 | ATCCGGAG | 0.0842

Row | Sequence | PBM E-score
51 | CGCCTGTA | -0.153
52 | AATCTTAA | 0.121
53 | CGGCGAAA | 0.112
54 | CGGGCTGA | -0.128
55 | AGACTTAA | -0.139
56 | AGAAATAA | 0.197
57 | AATGGTGA | 0.0367
58 | GCCATAGA | -0.162
59 | TACGCTGA | 0.196
60 | AGCACGGC | -0.0856
61 | ACAGGAGT | 0.00086
62 | ATCCAATC | 0.0365
63 | GAGTCCCC | -0.235
64 | ACTTAGAA | -0.0604
65 | ACTTTTAC | 0.273
66 | CAGCCTGA | -0.15
67 | CCCATAAA | -0.0895
68 | GTCAGAGA | -0.189
69 | TTATGGAA | 0.172
70 | ATGCAAAC | 0.17
71 | ATTGACGA | 0.0829
72 | AAACACTA | 0.184
73 | GTATACCA | 0.00106
74 | AAAAGGGA | -0.1
75 | AGGAAGTA | 0.0506

As entered above:
Value of ATCATAAG under PBM E-score: 0.204
Value of ACATGCAT under PBM E-score: 0.148

Next part:

Row | Sequence | PBM E-score
76 | CTCCCCGC | 0.235
77 | AAAAAGAT | 0.149
78 | CCTAACGA | -0.0973
79 | AACATGCG | 0.176
80 | GTTCCGTA | 0.24
81 | ACTAGAAG | -0.113
82 | AGGATGCG | -0.0938
83 | CGGCTAAA | 0.162
84 | GACGCGTC | -0.165
85 | AGAATTCG | 0.0232
86 | TGTTTGAA | -0.0142
87 | GGGGGTCA | -0.453
88 | ACGTGGTG | -0.0845
89 | CTTGACCA | -0.0945
90 | CGCGTTGC | 0.0846
91 | AGTTTTAC | 0.119
92 | ATGGCACC | -0.0839
93 | CGGGTGCC | -0.121
94 | ACGCATCA | 0.138
95 | CAGTTGAA | -0.0662
96 | ACTGTAAC | 0.0742
97 | CGGTCAAG | -0.059
98 | AAGTAGCG | -0.1
99 | AGATAGAG | 0.099
100 | CAAGTTCC | -0.118

Row | Sequence | PBM E-score
101 | GGCCCCGA | -0.155
102 | GAACCAGA | -0.183
103 | GCATCGGC | -0.125
104 | GGCGGAGA | -0.0732
105 | GTCTAAGA | 0.0467
106 | GTAGGTTA | 0.0894
107 | GCGTACCC | -0.214
108 | CTGGGTTC | -0.0172
109 | AGGAGACA | -0.0392
110 | GTAAGAGA | 0.0452
111 | ACCTTTAT | -0.122
112 | CAATTCGC | 0.227
113 | ACGTGCTA | -0.159
114 | CACTGCGA | -0.0355
115 | CTTCTCAA | -0.135
116 | GTAATGAC | 0.0891
117 | CTCTATTC | 0.0982
118 | GTTTTACA | 0.124
119 | ATCCACGC | -0.0622
120 | CGATATAC | 0.152
121 | GGTCCCTA | -0.183
122 | ACCGGAGA | 0.123
123 | GCCCTCAA | -0.219
124 | CTGTCGTA | 0.0969
125 | CTCGCCGC | 0.0301

Row | Sequence | PBM E-score
126 | CGTAGAGA | -0.124
127 | AACCCGAG | -0.0387
128 | CTCTAGCC | -0.218
129 | ATCCAGGC | -0.0409
130 | GGAAGCCC | -0.202
131 | CGCGTTGA | -0.00093
132 | CCGAAGAC | 0.0676
133 | ACCACCAA | -0.0451
134 | ATGTGAAA | 0.0249
135 | CTCAGTGA | -0.116
136 | AAGTGCTC | -0.192
137 | GCTGTAGA | -0.137
138 | ACAATTCT | 0.0682
139 | ATGATCAG | 0.0372
140 | GAGTATCA | -0.0396
141 | TCGCATCA | 0.0954
142 | CAGTAGTA | 0.0564
143 | ATGCTGTA | -0.0138
144 | GAGTATCC | -0.0954
145 | CATAGACC | -0.0448
146 | GGGTTCAC | -0.0209
147 | GGGATCTA | 0.0113
148 | CTAACAGC | -0.0547
149 | AACGCAGT | -0.115
150 | TCGTCCCA | -0.00184

From no. 16 to 21, copied from above:
Row | Sequence | PBM E-score
16 | TAGGCCAA | -0.0899
17 | ATCATAAG | 0.204
18 | GAGCAGGC | -0.227
19 | GAACAGAC | 0.0587
20 | GTTGGGAA | -0.00813
21 | AGCCGGGC | -0.216

(next part)

Row | Sequence | PBM E-score
151 | ATAGCCGA | 0.141
152 | ATTTGTAA | 0.326
153 | AATATATA | 0.18
154 | CAGCCCTA | 0.0564
155 | AGGACCCG | -0.169
156 | ATTTCGTG | 0.163
157 | GAACCTTA | 0.083
158 | AGTAATGG | 0.162
159 | ATGGTTGG | -0.0785
160 | AAAACCGT | -0.157
161 | AATCGGAA | 0.194
162 | AGCTTCCT | 0.00798
163 | GGGGAGGA | -0.166
164 | CTTCTACA | -0.0264
165 | CGCCAACA | 0.0596
166 | CTTGTAAA | 0.0136
167 | GCAGGGAA | 0.185
168 | ATAAAGCG | 0.00465
169 | AGTTCGCG | 0.0949
170 | AAGCAACA | 0.162
171 | CAGGGTGC | -0.286
172 | GATGAGAA | -0.028
